From the supplement of paper PMC10849652
This is one part of the list.

Sequences of proteins named here, by UniProt entry; tags and fusion partners are left off. A change or cut given only in a name is not applied to a line headed by its entry.
UniProt Q6UW56: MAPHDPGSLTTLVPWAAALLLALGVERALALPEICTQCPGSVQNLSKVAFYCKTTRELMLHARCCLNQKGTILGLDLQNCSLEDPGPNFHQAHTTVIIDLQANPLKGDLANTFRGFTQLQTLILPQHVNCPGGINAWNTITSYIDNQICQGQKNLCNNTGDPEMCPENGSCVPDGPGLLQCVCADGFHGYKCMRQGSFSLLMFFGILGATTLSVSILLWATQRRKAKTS
UniProt Q9BYG0: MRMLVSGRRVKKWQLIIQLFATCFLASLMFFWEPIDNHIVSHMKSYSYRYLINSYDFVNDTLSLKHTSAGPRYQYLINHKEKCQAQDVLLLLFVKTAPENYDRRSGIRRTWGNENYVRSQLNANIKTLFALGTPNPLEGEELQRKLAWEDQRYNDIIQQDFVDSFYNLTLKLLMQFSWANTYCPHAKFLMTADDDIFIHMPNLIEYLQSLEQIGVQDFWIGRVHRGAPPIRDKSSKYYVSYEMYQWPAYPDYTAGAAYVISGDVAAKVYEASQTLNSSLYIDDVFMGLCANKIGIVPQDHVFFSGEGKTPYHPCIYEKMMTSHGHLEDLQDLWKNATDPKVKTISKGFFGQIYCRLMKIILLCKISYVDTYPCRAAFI
UniProt Q9NQS1: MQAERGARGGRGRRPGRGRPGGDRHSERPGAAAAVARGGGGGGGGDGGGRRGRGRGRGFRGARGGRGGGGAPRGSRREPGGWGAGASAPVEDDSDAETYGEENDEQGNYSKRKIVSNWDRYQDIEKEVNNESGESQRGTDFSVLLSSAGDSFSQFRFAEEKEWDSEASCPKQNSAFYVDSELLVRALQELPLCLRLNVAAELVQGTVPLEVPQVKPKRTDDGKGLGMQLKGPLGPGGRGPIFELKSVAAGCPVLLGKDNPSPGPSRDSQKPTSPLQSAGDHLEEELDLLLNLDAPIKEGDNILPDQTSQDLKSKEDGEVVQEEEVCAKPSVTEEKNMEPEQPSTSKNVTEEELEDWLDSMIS
UniProt Q96GX2: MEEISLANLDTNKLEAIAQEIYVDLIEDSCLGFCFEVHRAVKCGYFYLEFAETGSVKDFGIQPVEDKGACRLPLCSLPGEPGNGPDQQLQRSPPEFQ
UniProt Q9H0Y0: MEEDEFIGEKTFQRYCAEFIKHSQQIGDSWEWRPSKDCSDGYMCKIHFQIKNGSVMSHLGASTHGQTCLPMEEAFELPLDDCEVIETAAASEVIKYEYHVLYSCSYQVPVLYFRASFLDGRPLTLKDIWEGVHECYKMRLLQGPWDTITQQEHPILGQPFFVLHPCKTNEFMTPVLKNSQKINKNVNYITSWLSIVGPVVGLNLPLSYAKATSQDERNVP
UniProt Q6Y288: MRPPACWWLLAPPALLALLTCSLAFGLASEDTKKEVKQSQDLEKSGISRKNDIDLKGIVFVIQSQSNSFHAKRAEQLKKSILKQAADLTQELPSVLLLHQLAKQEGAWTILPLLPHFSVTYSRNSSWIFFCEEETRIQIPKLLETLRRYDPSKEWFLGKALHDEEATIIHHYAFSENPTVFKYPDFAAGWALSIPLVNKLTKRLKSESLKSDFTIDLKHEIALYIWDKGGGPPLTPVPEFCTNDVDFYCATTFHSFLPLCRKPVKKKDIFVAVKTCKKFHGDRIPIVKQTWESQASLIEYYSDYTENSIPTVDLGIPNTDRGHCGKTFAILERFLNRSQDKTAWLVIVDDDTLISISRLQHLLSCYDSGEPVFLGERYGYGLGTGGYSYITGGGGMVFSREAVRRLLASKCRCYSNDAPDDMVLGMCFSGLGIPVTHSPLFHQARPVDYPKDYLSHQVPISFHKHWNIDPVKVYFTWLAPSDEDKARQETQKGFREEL
UniProt Q8NHH9: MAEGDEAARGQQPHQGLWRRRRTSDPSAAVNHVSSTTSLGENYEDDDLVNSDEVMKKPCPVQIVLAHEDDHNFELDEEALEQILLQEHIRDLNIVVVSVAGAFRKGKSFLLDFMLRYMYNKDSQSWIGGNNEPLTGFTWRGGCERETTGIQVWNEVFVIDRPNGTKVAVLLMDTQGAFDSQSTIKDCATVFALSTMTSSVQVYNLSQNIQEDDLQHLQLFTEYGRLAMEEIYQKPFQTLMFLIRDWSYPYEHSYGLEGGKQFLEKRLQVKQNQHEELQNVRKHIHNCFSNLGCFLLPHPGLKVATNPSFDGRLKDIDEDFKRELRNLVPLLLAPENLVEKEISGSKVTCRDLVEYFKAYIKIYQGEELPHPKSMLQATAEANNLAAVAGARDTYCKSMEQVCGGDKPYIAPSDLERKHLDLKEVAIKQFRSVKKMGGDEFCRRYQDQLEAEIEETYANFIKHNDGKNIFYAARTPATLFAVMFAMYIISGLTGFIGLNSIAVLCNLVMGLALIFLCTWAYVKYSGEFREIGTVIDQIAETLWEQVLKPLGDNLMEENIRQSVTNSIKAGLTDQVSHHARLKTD
UniProt Q8IZT6: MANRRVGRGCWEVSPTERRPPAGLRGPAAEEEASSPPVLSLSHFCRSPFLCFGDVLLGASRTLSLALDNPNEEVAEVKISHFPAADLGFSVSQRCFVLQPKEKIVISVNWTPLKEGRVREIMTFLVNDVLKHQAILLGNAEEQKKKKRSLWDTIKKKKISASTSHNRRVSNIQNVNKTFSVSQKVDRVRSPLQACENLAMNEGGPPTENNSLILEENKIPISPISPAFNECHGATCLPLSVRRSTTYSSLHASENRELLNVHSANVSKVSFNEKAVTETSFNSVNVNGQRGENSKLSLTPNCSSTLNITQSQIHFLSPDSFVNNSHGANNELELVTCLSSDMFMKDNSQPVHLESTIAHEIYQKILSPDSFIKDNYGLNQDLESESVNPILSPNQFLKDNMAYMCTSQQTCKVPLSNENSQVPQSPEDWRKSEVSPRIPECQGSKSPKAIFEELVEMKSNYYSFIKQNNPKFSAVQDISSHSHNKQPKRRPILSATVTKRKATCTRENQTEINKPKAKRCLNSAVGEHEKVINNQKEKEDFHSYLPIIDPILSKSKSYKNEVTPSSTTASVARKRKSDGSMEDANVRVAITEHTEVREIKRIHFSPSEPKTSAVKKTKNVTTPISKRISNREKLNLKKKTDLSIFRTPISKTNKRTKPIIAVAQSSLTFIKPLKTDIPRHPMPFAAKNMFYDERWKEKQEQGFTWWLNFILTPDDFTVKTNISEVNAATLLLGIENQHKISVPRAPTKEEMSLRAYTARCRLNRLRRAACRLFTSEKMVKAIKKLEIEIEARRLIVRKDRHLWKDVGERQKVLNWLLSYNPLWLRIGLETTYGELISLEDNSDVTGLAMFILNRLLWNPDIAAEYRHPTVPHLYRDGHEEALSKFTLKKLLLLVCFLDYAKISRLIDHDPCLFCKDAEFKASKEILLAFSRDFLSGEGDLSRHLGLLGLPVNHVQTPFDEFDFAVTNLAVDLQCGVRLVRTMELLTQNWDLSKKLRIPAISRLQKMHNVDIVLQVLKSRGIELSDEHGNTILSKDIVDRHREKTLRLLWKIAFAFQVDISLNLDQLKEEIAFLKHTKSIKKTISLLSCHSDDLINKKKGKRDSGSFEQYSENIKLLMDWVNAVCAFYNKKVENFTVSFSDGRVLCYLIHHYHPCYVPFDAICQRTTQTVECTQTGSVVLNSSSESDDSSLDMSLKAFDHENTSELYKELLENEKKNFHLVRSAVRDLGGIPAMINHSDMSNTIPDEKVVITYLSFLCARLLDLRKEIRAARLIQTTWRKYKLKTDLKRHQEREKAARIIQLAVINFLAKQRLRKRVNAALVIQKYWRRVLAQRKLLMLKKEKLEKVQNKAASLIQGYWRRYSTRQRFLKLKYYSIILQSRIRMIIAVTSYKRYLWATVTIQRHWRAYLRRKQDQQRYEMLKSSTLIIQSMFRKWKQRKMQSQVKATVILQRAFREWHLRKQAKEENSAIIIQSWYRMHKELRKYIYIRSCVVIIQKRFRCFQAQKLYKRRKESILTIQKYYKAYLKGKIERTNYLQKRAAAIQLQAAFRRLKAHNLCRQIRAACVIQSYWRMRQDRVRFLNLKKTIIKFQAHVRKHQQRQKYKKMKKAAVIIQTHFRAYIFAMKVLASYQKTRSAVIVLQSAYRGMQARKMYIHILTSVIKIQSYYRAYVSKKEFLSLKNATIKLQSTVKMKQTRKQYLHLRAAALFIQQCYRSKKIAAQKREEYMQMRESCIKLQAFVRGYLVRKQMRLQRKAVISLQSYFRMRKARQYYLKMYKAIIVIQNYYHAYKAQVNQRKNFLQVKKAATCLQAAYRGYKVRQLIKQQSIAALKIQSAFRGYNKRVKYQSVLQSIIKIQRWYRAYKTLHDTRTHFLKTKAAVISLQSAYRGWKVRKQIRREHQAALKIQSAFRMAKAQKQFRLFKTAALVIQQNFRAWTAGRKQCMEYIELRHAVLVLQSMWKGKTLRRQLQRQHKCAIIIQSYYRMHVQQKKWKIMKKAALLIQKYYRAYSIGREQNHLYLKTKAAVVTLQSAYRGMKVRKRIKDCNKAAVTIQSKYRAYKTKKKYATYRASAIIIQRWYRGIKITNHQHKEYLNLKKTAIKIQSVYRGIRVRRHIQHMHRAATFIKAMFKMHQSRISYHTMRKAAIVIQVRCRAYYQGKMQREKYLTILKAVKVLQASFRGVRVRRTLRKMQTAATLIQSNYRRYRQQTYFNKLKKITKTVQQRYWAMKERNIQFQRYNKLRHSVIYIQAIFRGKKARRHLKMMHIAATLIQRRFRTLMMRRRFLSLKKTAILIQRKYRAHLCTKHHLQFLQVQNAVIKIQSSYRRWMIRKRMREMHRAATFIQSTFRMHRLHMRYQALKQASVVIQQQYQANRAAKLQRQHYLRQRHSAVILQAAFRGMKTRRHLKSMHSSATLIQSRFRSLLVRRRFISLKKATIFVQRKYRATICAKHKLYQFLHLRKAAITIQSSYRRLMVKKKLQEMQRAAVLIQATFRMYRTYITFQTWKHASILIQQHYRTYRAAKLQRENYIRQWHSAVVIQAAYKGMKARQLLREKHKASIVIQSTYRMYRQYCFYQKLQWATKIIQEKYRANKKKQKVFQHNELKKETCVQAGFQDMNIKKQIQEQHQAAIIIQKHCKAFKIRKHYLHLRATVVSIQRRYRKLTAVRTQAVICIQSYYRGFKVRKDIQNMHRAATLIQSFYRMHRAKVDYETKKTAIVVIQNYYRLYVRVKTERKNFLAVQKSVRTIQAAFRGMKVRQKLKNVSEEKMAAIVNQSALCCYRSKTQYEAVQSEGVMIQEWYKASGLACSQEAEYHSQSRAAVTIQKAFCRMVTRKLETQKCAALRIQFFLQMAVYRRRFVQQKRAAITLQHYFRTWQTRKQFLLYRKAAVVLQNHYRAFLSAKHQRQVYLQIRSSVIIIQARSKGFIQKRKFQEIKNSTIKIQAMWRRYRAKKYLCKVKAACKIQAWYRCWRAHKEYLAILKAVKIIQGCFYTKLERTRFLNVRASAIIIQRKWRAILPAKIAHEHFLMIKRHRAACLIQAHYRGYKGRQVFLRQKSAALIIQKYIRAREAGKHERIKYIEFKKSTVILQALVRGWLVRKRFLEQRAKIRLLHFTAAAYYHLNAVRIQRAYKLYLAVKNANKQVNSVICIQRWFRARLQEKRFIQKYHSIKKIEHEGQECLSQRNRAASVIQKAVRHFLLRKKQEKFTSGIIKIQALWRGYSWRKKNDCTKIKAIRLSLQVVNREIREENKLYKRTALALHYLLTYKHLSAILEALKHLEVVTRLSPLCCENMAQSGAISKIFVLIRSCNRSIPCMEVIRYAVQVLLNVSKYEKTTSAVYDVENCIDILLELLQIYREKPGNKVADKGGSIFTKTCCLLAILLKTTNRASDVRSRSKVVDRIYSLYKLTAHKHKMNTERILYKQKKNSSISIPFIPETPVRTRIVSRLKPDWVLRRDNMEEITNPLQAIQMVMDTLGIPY
UniProt O43681: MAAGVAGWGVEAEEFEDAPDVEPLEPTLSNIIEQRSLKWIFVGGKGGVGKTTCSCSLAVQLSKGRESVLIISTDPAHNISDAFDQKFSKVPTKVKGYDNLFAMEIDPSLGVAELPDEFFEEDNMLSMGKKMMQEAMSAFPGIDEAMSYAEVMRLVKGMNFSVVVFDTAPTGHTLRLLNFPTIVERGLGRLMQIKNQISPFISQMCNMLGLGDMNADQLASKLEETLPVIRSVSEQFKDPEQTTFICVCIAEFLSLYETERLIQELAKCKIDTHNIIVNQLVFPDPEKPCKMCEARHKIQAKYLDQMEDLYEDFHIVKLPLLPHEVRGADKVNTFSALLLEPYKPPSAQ
UniProt Q9H7T9: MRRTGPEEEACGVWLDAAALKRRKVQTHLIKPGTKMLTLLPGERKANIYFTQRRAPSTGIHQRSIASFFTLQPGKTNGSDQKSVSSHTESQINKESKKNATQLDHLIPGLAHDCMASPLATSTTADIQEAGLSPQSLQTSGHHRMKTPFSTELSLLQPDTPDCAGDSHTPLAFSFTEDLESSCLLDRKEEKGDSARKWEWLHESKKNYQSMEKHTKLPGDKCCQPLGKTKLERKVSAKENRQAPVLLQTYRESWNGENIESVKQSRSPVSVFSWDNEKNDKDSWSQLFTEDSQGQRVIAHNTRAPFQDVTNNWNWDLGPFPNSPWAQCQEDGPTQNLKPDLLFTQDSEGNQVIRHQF

compound: COC(=O)N[C@@H](C)CNc1nccc(-c2cn(C(C)C)nc2-c2cc(Cl)cc(NS(C)(=O)=O)c2F)n1 [encorafenib]; test: log2 fold change, soluble protein after heating vs DMSO (PISA); higher = thermal stabilisation; K562 lysate, 10 uM; active = over 0.2 and 3.5 SD of the protein, either way, in both replicates (recomputed)
In short: (§1)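 Following dounce homogenisation of K562 pellets in PBS pH 7.4 with 1 mM MgCl2, crude extract at 1 mg/mL protein was incubated for 30 min with 10 μM compound. Aliquots were then heated for 3 min over 48°C-58°C and pooled, NP-40 was added to 0.5% at 4°C, and soluble protein was recovered as the supernatant at 21,000xg for 90 min. Channel-sum-equalised TMTpro 16plex LC-MS/MS quantified this protein. Each value, from duplicates, is a log-two fold change in thermal stability relative to solvent controls.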

log2 fold change, inactive:
ATXN2L (UniProt H3BUF6) 0.058
AXIN1 (UniProt O15169) 0.015
ATRAID isoform 3 (UniProt Q6UW56) -0.008
B4GALNT1 (UniProt Q00973) 0.105
B3GNT5 (UniProt Q9BYG0) -0.019
AVEN (UniProt Q9NQS1) 0.017
ATF3 (UniProt P18847) 0.037

Quoted at random: 2 records from the list, in no set order.
log2 fold change, inactive:
ATRAID isoform 3 (UniProt Q6UW56) -0.008
B3GNT5 (UniProt Q9BYG0) -0.019

compound: COC(=O)[C@H](CCSC)NC(=O)C1=C(C=C(C=C1)NC[C@H](CS)N)C2=CC=CC=C2; test: as above
In short: as §1

log2 fold change, inactive:
ASB3 isoform 3 (UniProt Q9Y575) -0.195
ATRN (UniProt O75882) -0.075
ATP5F1A (UniProt P25705) -0.024
ASCC2 (UniProt Q9H1I8) 0.037
ATXN7L3B (UniProt Q96GX2) 0.131
ASL (UniProt P04424) -0.026
ATG10 (UniProt Q9H0Y0) 0.025
ATG14 (UniProt Q6ZNE5) 0.04
B3GLCT (UniProt Q6Y288) 0.074
ATL2 (UniProt Q8NHH9) 0.034
ASPM (UniProt Q8IZT6) 0.026
ATE1 isoform 2 (UniProt O95260) 0.109
ASNA1 (UniProt O43681) 0.001
AUNIP isoform 2 (UniProt Q9H7T9) -0.189
ATAD1 (UniProt Q8NBU5) -0.042
AURKB isoform 5 (UniProt Q96GD4) 0.19
